Experimental data from ChEMBL document CHEMBL2177047, “Design, synthesis, and pharmacological evaluation of bis-2-(5-phenylacetamido-1,2,4-thiadiazol-2-yl)ethyl sulfide 3 (BPTES) analogs as glutaminase inhibitors” (J Med Chem, 2012).
≈ marks a conversion by molar mass, not a printed value.

Conditions: buffer, 72 h, pH 7.4

`Nc1nnc(CCSCCc2nnc(NC(=O)Cc3ccccc3)s2)s1` showed a solubility of 13 µg/mL (≈ 32 µM).
